The list shows a part of the results. Further columns of the screen follow, without active or inactive calls. Compounds called inactive in the main read-out are mostly missing here. The note in brackets gives the kind of curve behind each potency; many fits are weak.

The experiment can be described thus: IkB Signaling. The settings on record: ABC-DLBCL IkBa-CBG/CBR dual luciferase ratio (green luciferase fused to IkBa over red control in OCI-Ly3 lymphoma cells), 4 h. The method in brief: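 Curves were fitted separately to fusion (green), unfused (red) and ratio luminescence, then classed by r2, magnitude and activity. Cells: OCI-Ly3, 4 h compound plus doxycycline at 37C; 10 uM MG-132 defined full response.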
[1] abbreviates: measured here: control luc red channel unless noted.

On to `COc1cccc(-c2nc(-c3ccc(NC(=O)Cc4ccccc4OC)cc3)no2)c1`, for which the AC50 under setting [1] is 5.01 µM [falling, partial curve].

Turning to `CC(C)CC(=O)Nc1ccc(-c2cn3ccsc3n2)cc1`, the half-maximal activity concentration (AC50) under setting [1] was 10 µM [falling, partial curve].

In the case of `COc1ccc2nc(N3CCN(C(=O)c4ccco4)CC3)sc2c1`, the AC50 under setting [1] is 2.51 µM [rising, partial curve].

Take `COc1ccc(OC)c(CNC(=O)C2COc3ccccc3C2)c1` (stereo not drawn): under setting [1], the half-maximal activity concentration (AC50) is 10 µM [rising, partial curve].

As for `CCc1ccc(S(=O)(=O)c2nnn3c2nc(N2CCCC(C)C2)c2cc(Cl)ccc23)cc1` (stereo not drawn), the AC50 under setting [1] was 0.2 µM [falling, full curve].

Regarding `COc1ccc(Br)cc1CNC(=O)c1ccc2c(c1)nc1n2CCCCC1`, the AC50 under setting [1] was 20 µM [falling, partial curve].

Turning to `Cc1noc(C)c1-c1ccc2ncnc(NCc3ccccc3)c2c1`, the AC50 under setting [1] is 631 nM [rising, full curve] [measured here: IkB-luc green channel].

On to `Cc1cccc(CN2C(=O)c3ccccc3S(=O)(=O)c3ccc(C(=O)N4CCN(c5cc(C)ccc5C)CC4)cc32)c1`, for which, under setting [1], the AC50 is 25.1 µM [falling, single point].

With `CCc1ccc(-c2cc3c(N4CCN(c5ccccc5)CC4)nccn3n2)cc1`, the AC50 under setting [1] was 12.6 µM [falling, single point].

Take `COc1cccc(C(=O)n2nc(-c3ccco3)nc2NCc2cccs2)c1`: under setting [1], the concentration at half-maximal activity (AC50) was 39.8 µM [falling, single point].

As for `Cc1cccc(-c2nc3nc(C)cc(N4CCN(c5ccccc5)CC4)n3n2)c1`, the AC50 under setting [1] was 5.01 µM [rising, single point].

As to `COC(=O)c1ccccc1NC(=O)COc1ccccc1`, the AC50 under setting [1] was 10 µM [falling, partial curve].

`COc1ccc(NS(=O)(=O)c2ccc(NS(=O)(=O)c3ccc4c(c3)OCCO4)cc2)cc1`: the AC50 under setting [1] is 25.1 µM [falling, partial curve].

Regarding `COc1cccc(N2CCN(Cc3nnc(-c4ccc5c(c4)OCO5)o3)CC2)c1`, under setting [1], the concentration at half-maximal activity (AC50) was 20 µM [falling, single point].

As for `COc1ccc(NC(=O)N2CCN(c3cc(-c4noc(C)n4)ccc3C)CC2)c(OC)c1`, the half-maximal activity concentration (AC50) under setting [1] was 2.51 µM [rising, partial curve].

For the compound `Cc1c(C(=O)NCc2ccccc2Cl)sc2nc3n(c(=O)c12)CCC3`, the AC50 under setting [1] is 2 µM [rising, full curve].

As for `Cc1cc(C)cc(N2CCn3c2nc2c3c(=O)n(CCc3ccccc3)c(=O)n2C)c1`, the AC50 under setting [1] was 15.8 µM [falling, partial curve].

Consider `Cc1cccc(N2CCN(c3ccc(C(=O)O)cc3NC(=O)c3ccccc3F)CC2C)c1` (stereo not drawn), for which the concentration at half-maximal activity (AC50) under setting [1] is 20 µM [falling, partial curve].

Turning to `Cn1c(=O)n(CCc2ccccc2)c(=O)c2c1nc1n2CCN1c1ccc(Cl)cc1`, under setting [1], the half-maximal activity concentration (AC50) is 12.6 µM [falling, partial curve].

On to `Cc1ccc2nc(NC(=O)c3cccs3)sc2c1`, for which the AC50 under setting [1] was 2 µM [falling, full curve].

On to `CC(C(=O)Nc1ccccc1C(F)(F)F)n1nc(-c2ccccc2)c2c(c1=O)CCCC2` (stereo not drawn), for which the AC50 under setting [1] is 15.8 µM [falling, partial curve].

For `COc1ccc(CC(=O)Nc2cccc(-c3nnc(-c4ccccc4)o3)c2)cc1OC`, the AC50 under setting [1] was 3.16 µM [falling, full curve].

As to `CC(C)CC(=O)Nc1c(C(=O)N2CCN(c3ccccc3F)CC2)oc2ccccc12`, under setting [1], the AC50 was 10 µM [falling, partial curve].

`Cc1nc2ccccc2n1CCc1nc2c3ccccc3nc(SCC(=O)Nc3ccc(C(C)C)cc3)n2n1`: under setting [1], the AC50 was 3.16 µM [rising, partial curve].

With `COc1ccc(NC(=O)c2ccco2)cc1NC(=O)COc1ccc(C)cc1C`, under setting [1], the AC50 was 0.631 µM [rising, full curve].

As to `Clc1ccc(CSc2nc3ncccc3[nH]2)cc1`, the AC50 under setting [1] was 1 µM [rising, full curve].

With `CCC(=O)N1CCc2cc(OC)c(OC)cc2C1COc1ccc(C(=O)OC)cc1` (stereo not drawn), the AC50 under setting [1] was 39.8 µM [falling, single point].

In the case of `Cc1nn(Cc2ccccc2)c(C)c1C(=O)OCC(=O)c1cc(C)n(C2CC2)c1C`, the AC50 under setting [1] is 12.6 µM [falling, partial curve].

With `CCCc1ccc(NC(=O)C2CCN(c3cnccn3)CC2)cc1`, the AC50 under setting [1] is 15.8 µM [falling, partial curve].

As for `Cc1ccc(NC(=O)Cc2ccc(NC(=O)N3CCCCc4ccccc43)cc2)cc1`, the AC50 under setting [1] is 25.1 µM [falling, single point].

Consider `CSc1cccc(NC(=O)Cn2nnc(C(=O)NCCc3ccccc3)c2N)c1`, for which the AC50 under setting [1] was 12.6 µM [falling, partial curve].

`O=C1c2[nH]nc(-c3ccccc3O)c2C(c2ccc(F)cc2)N1Cc1ccco1` (stereo not drawn): the AC50 under setting [1] was 25.1 µM [falling, partial curve].

Turning to `O=C(Cn1cc(C(=O)c2ccco2)c2ccccc21)Nc1ccc(Br)cc1`, under setting [1], the AC50 is 15.8 µM [falling, partial curve].

As to `c1ccc2oc(SCc3nc4ccccc4s3)nc2c1`, the half-maximal activity concentration (AC50) under setting [1] was 20 µM [falling, partial curve].

On to `CCOC(=O)c1cnn(-c2ccc(C(=O)Nc3cc(OC)c(OC)c(OC)c3)cc2)c1N`, for which the AC50 under setting [1] is 0.794 µM [falling, partial curve].

As for `O=C(CSc1ccccc1)N1CCc2c([nH]c3ccccc23)C1c1ccc(F)cc1` (stereo not drawn), under setting [1], the AC50 is 15.8 µM [falling, partial curve].

With `CC1CCN(S(=O)(=O)c2cn(CC(=O)Nc3cccc(C(F)(F)F)c3)c(=O)c3ccccc23)CC1`, the AC50 under setting [1] is 2.51 µM [falling, full curve].

Consider `COc1cccc(C(=O)Nc2cccc(C(=O)OCc3cc(=O)n4nc(C5CC5)sc4n3)c2)c1`, for which the AC50 under setting [1] was 0.794 µM [falling, full curve].

Consider `CCn1c(C(=O)NCCc2ccc(OC)c(OC)c2)cc2sc(Cl)cc21`, for which the AC50 under setting [1] was 39.8 µM [falling, single point].

For the compound `O=C(c1ccccc1)N1CCN(c2ccc(NCc3ccc4c(c3)OCO4)cc2)CC1`, the AC50 under setting [1] was 15.8 µM [falling, partial curve].

For `COc1cccc(NC(=O)c2ccc3nc(CCc4ccccc4)oc3c2)c1`, the AC50 under setting [1] was 3.98 µM [falling, full curve].

Turning to `CCCCNc1nc(Oc2ccc(OCC)nn2)nc(N2CCOCC2)n1`, the concentration at half-maximal activity (AC50) under setting [1] is 20 µM [falling, single point].

Consider `COc1ccc(Cl)cc1NC(=O)c1c(NCc2ccc(C)o2)sc2c1CCCCC2`, for which the AC50 under setting [1] is 25.1 µM [falling, partial curve].

Take `Cc1ccc(S(=O)(=O)C(C#N)c2nc3ccccc3nc2OC(C)C)cc1` (stereo not drawn): the AC50 under setting [1] was 12.6 µM [falling, partial curve].

For `CCCCOc1ccc(-c2nn(-c3ccccc3)cc2C2NC(=O)NC(C)=C2C(=O)OC)cc1` (stereo not drawn), the AC50 under setting [1] is 25.1 µM [falling, single point].

As for `O=C(C1CC1)N1CCc2cc(Br)cc(S(=O)(=O)N3CCN(c4cccc(C(F)(F)F)c4)CC3)c21`, the AC50 under setting [1] was 39.8 µM [rising, single point].

Take `CCCCc1n[nH]c2c1/C(=N/O)CC(c1ccccc1)C2` (stereo not drawn): the AC50 under setting [1] was 15.8 µM [falling, partial curve].

For the compound `COc1ccc(NC(=O)Cn2c(=O)n(-c3ccc(OC)c(OC)c3)c(=O)c3ccccc32)cc1`, the concentration at half-maximal activity (AC50) under setting [1] was 0.0398 µM [rising, full curve].

As to `CCCCN(C)c1nc2c(S(=O)(=O)c3ccc(CC)cc3)nnn2c2ccc(Cl)cc12`, under setting [1], the AC50 is 12.6 µM [falling, partial curve].

With `COc1ccccc1NC(=O)C1=C(C)Nc2c(C(=O)Nc3ccc(F)cc3)cnn2C1c1cccc([N+](=O)[O-])c1` (stereo not drawn), under setting [1], the concentration at half-maximal activity (AC50) was 12.6 µM [falling, partial curve].

Consider `CC1CCCN(C(=O)CSc2nnc(-c3c[nH]c4ccccc34)o2)C1` (stereo not drawn), for which, under setting [1], the AC50 is 31.6 µM [falling, partial curve].

`CC(=O)c1ccc(N2CCN(c3ncnc4c3c(-c3ccccc3)cn4-c3cccc(C)c3)CC2)cc1`: the AC50 under setting [1] was 3.98 µM [rising, partial curve].

`CCOC(=O)c1ccc(NC(=O)c2c(-c3c(F)cccc3Cl)noc2C)cc1`: the AC50 under setting [1] is 15.8 µM [falling, partial curve].

For `CC(C)Sc1oc(-c2cccs2)nc1S(=O)(=O)c1ccc(Cl)cc1`, the AC50 under setting [1] is 6.31 µM [falling, full curve].

Turning to `N#Cc1c(NC(NC(=O)c2ccco2)C(=O)c2ccccc2)sc2c1CCCC2` (stereo not drawn), the AC50 under setting [1] is 6.31 µM [falling, partial curve].

As to `Cc1ccc(CNC(=O)c2ccc(Cn3c(=O)c4ccccc4n(CC(=O)Nc4ccc(C)cc4C)c3=O)cc2)cc1`, the AC50 (measured here: IkB-luc green channel) is 6.31 µM [rising, single point] and the AC50 (measured here: control luc red channel) was 15.8 µM [falling, single point].

Consider `COc1cc(NC(=O)c2cc(-c3cccs3)on2)cc(OC)c1OC`, for which the concentration at half-maximal activity (AC50) under setting [1] is 7.94 µM [falling, partial curve].

Regarding `CCOc1ccc(CCNC(=O)c2cn(CC)c3ccc(S(=O)(=O)N4CCc5ccccc5C4)cc3c2=O)cc1OCC`, under setting [1], the AC50 was 3.16 µM [rising, partial curve, poor fit].

For the compound `CCn1c2ccccc2c2cc(CN3CCN(Cc4ccccc4F)CC3)ccc21`, the AC50 under setting [1] was 15.8 µM [falling, partial curve].

Take `COc1ccc(-c2cc(C(F)(F)F)nc(S(=O)(=O)CCCC(=O)Nc3cccc(O)c3)n2)cc1OC`: the AC50 under setting [1] was 5.01 µM [falling, full curve].

Regarding `CCc1ccc(NCc2cc3cc4c(cc3n(CC(=O)Nc3ccc(C)cc3)c2=O)OCO4)cc1`, the AC50 under setting [1] is 10 µM [falling, partial curve].

For `CC(=O)c1ccc(NC(=O)CSc2nnc3ccc(-c4ccc(Cl)cc4)nn23)cc1`, under setting [1], the AC50 is 3.16 µM [rising, partial curve].

Values taken from PubChem BioAssay AID445 (National Center for Advancing Translational Sciences (NCATS), 2006).
